# Source: the supplement of paper PMC4604168 (melanoma cell lines)
# The other results are listed elsewhere or left out. Repeats are few or missing, and single values can be far off.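 Imaging used 1,536-well plates; nuclei positive for cleaved PARP by antibody were divided by total DNA-stained nuclei to yield the apoptosis fraction. Doses for screening kept most cells viable, and cell lines differ markedly in resting and induced cleaved-PARP levels.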
# Legend:
# Experiment in all cases: cleaved PARP positive nuclei fraction relative to DMSO control; melanoma cells; higher = more apoptosis
# Conditions in all cases: library dose: low library concentration; 72 h
# 501Mel = test system: 501Mel
# A101D = test system: A101D
# A2058 = test system: A2058
# A375 = test system: A375
# C32 = test system: C32
# CBRC008 = test system: CBRC008 (line from a melanoma biopsy)
# CBRC014 = test system: CBRC014 (line from a melanoma biopsy)
# CBRC016 = test system: CBRC016 (line from a melanoma biopsy)
# CBRC017 = test system: CBRC017 (line from a melanoma biopsy)
Compound,cleaved PARP positive nuclei fraction (501Mel) [%],cleaved PARP positive nuclei fraction (A101D) [%],cleaved PARP positive nuclei fraction (A2058) [%],cleaved PARP positive nuclei fraction (A375) [%],cleaved PARP positive nuclei fraction (C32) [%],cleaved PARP positive nuclei fraction (CBRC008) [%],cleaved PARP positive nuclei fraction (CBRC014) [%],cleaved PARP positive nuclei fraction (CBRC016) [%],cleaved PARP positive nuclei fraction (CBRC017) [%]
"NC(=O)c1ccc(N(C(N)=O)c2c(F)cccc2F)nc1-c1ccc(F)cc1F + OCc1c[nH]c2ccccc12 [Indole-3-carbinol] (first compound 0.4 µM, partner dose 0.8 µM)",78.5,116,82.6,52.8,80.7,45.4,88.9,103,109
"CS(=O)(=O)c1ccc(C(=O)Nc2ccc(Cl)c(-c3ccccn3)c2)c(Cl)c1 [vismodegib] + CC(=O)O[C@@]12CO[C@@H]1C[C@H](O)[C@@]1(C)C(=O)[C@H](O)C3=C(C)[C@@H](OC(=O)[C@H](O)[C@@H](NC(=O)OC(C)(C)C)c4ccccc4)C[C@@](O)([C@@H](OC(=O)c4ccccc4)[C@H]21)C3(C)C [Docetaxel] (first compound 1 µM, partner dose 0.0001 µM)",191,185,1450,569,415,622,126,616,231
"CC1(C)CCC(c2ccc(Cl)cc2)=C(CN2CCN(c3ccc(C(=O)NS(=O)(=O)c4ccc(N[C@H](CCN5CCOCC5)CSc5ccccc5)c(S(=O)(=O)C(F)(F)F)c4)cc3)CC2)C1 + CC(=O)c1c(C)c2cnc(Nc3ccc(N4CCNCC4)cn3)nc2n(C2CCCC2)c1=O [palbociclib] (first compound 0.4 µM, partner dose 0.04 µM)",65.8,300,143,834,135,386,390,392,332
"CS(=O)(=O)c1ccc(C(=O)Nc2ccc(Cl)c(-c3ccccn3)c2)c(Cl)c1 [vismodegib] + NC1(c2ccc(-c3nc4ccn5c(=O)[nH]nc5c4cc3-c3ccccc3)cc2)CCC1 [MK2206] (first compound 1 µM, partner dose 0.4 µM)",101,98.5,62.3,340,76.7,102,74.6,46,70.4
"CC(=O)O[C@@]12CO[C@@H]1C[C@H](O)[C@@]1(C)C(=O)[C@H](O)C3=C(C)[C@@H](OC(=O)[C@H](O)[C@@H](NC(=O)OC(C)(C)C)c4ccccc4)C[C@@](O)([C@@H](OC(=O)c4ccccc4)[C@H]21)C3(C)C [Docetaxel] + C#Cc1cccc(Nc2ncnc3cc(OCCOC)c(OCCOC)cc23)c1 [erlotinib] (first compound 0.0001 µM, partner dose 0.8 µM)",293,228,5490,4160,224,197,209,376,167
"C[C@]1(O)C[C@@H](c2nc(-c3ccc4ccc(-c5ccccc5)nc4c3)c3c(N)nccn32)C1 + CNC(=O)c1cc(Oc2ccc(NC(=O)Nc3ccc(Cl)c(C(F)(F)F)c3)cc2)ccn1 [sorafenib] (first compound 0.4 µM, partner dose 0.4 µM)",138,99.7,79.1,487,88.5,118,114,64.9,110
"Cn1cnc2c(F)c(Nc3ccc(Br)cc3Cl)c(C(=O)NOCCO)cc21 [selumetinib] + COCC[n+]1c2c(n(Cc3cnccn3)c1C)C(=O)c1ccccc1C2=O [YM155] (first compound 0.015 µM, partner dose 0.0004 µM)",550,47.9,106,159,88.5,117,89.1,235,127
"Cn1sc(=O)n(Cc2ccccc2)c1=O + CCCS(=O)(=O)Nc1ccc(F)c(C(=O)c2c[nH]c3ncc(Cl)cc23)c1F [PLX4720] (first compound 0.4 µM, partner dose 0.08 µM)",146,309,47.2,82.3,113,75.2,104,112,151
"C[C@@H](N)c1ccc(C(=O)Nc2ccnc3[nH]ccc23)cc1 + CC(=O)c1c(C)c2cnc(Nc3ccc(N4CCNCC4)cn3)nc2n(C2CCCC2)c1=O [palbociclib] (first compound 0.4 µM, partner dose 0.04 µM)",103,89.3,202,144,135,51.1,167,125,147
"Cn1cnc2c(F)c(Nc3ccc(Br)cc3Cl)c(C(=O)NOCCO)cc21 [selumetinib] + CS(=O)(=O)CCNCc1ccc(-c2ccc3ncnc(Nc4ccc(OCc5cccc(F)c5)c(Cl)c4)c3c2)o1 [lapatinib] (first compound 0.015 µM, partner dose 0.8 µM)",1130,97,96.4,438,87.1,155,95.1,53.2,112
"NC(=O)c1ccc(N(C(N)=O)c2c(F)cccc2F)nc1-c1ccc(F)cc1F + COc1ccc(Cl)c(Nc2nc3ccccc3nc2NS(=O)(=O)c2cccc(NC(=O)C(C)(C)N)c2)c1 [XL147] (first compound 0.4 µM, partner dose 0.8 µM)",63.4,82.3,147,223,71.9,98.7,111,76.9,139
"Cn1cnc2c(F)c(Nc3ccc(Br)cc3Cl)c(C(=O)NOCCO)cc21 [selumetinib] + Cc1nc(Nc2ncc(C(=O)Nc3c(C)cccc3Cl)s2)cc(N2CCN(CCO)CC2)n1 [dasatanib] (first compound 0.015 µM, partner dose 0.004 µM)",208,222,189,309,285,62.9,91.9,131,115
"C[C@]1(O)C[C@@H](c2nc(-c3ccc4ccc(-c5ccccc5)nc4c3)c3c(N)nccn32)C1 + O=C(O)[C@@H]1[O][Sb](=[O])([O][Sb]2(=[O])[O][C@H]([C@H](O)CO)[C@H](O)[C@H](C(=O)O)[O]2)[O][C@H]([C@H](O)CO)[C@@H]1O [stibogluconate] (first compound 0.4 µM, partner dose 2 µM)",120,45.5,53.7,451,70,138,100,75.5,66.3
"CCCCCCCCc1ccc(CCC(N)(CO)CO)cc1 [fingolimod] + Cn1c(Nc2ccc(C(F)(F)F)cc2)nc2cc(Oc3ccnc(-c4ncc(C(F)(F)F)[nH]4)c3)ccc21 [CHIR265] (first compound 2 µM, partner dose 0.08 µM)",1210,220,325,634,105,106,131,71.6,150
"CS(=O)(=O)c1ccc(C(=O)Nc2ccc(Cl)c(-c3ccccn3)c2)c(Cl)c1 [vismodegib] + CNC(=O)c1cc(Oc2ccc(NC(=O)Nc3ccc(Cl)c(C(F)(F)F)c3)cc2)ccn1 [sorafenib] (first compound 1 µM, partner dose 0.4 µM)",302,277,87.1,76.8,70.2,74.9,102,68.2,97.7
"CS(=O)(=O)c1ccc(C(=O)Nc2ccc(Cl)c(-c3ccccn3)c2)c(Cl)c1 [vismodegib] + Clc1ccc(Nc2nnc(Cc3ccncc3)c3ccccc23)cc1 [vatalanib] (first compound 1 µM, partner dose 2 µM)",111,101,138,201,82.4,78.1,118,131,113
"CS(=O)(=O)c1ccc(C(=O)Nc2ccc(Cl)c(-c3ccccn3)c2)c(Cl)c1 [vismodegib] + Cn1nnc2c(C(N)=O)ncn2c1=O [temozolomide] (first compound 1 µM, partner dose 2 µM)",88.8,51.4,183,122,68.6,86,104,179,80.5
"Cn1sc(=O)n(Cc2ccccc2)c1=O + COc1ccc(Cl)c(Nc2nc3ccccc3nc2NS(=O)(=O)c2cccc(NC(=O)C(C)(C)N)c2)c1 [XL147] (first compound 0.4 µM, partner dose 0.8 µM)",71,72,146,102,78.1,225,106,281,157
"COc1ccc(C2=N[C@@H](c3ccc(Cl)cc3)[C@@H](c3ccc(Cl)cc3)N2C(=O)N2CCNC(=O)C2)c(OC(C)C)c1 [Nutlin-3] + CCN(CC)CCNC(=O)c1c(C)[nH]c(/C=C2\C(=O)Nc3ccc(F)cc32)c1C [sunitinib] (first compound 0.1 µM, partner dose 0.4 µM)",90.1,50.7,31.6,104,84,76.1,100,45.5,147
"CC1(C)CCC(c2ccc(Cl)cc2)=C(CN2CCN(c3ccc(C(=O)NS(=O)(=O)c4ccc(N[C@H](CCN5CCOCC5)CSc5ccccc5)c(S(=O)(=O)C(F)(F)F)c4)cc3)CC2)C1 + C#Cc1cccc(Nc2ncnc3cc(OCCOC)c(OCCOC)cc23)c1 [erlotinib] (first compound 0.4 µM, partner dose 0.8 µM)",200,489,73.2,274,123,473,427,403,325
"Cn1sc(=O)n(Cc2ccccc2)c1=O + CN(c1ncccc1CNc1nc(Nc2ccc3c(c2)CC(=O)N3)ncc1C(F)(F)F)S(C)(=O)=O [PF562271] (first compound 0.4 µM, partner dose 0.08 µM)",87.6,48.9,133,107,153,65.2,170,171,217
"COc1ccc(C2=N[C@@H](c3ccc(Cl)cc3)[C@@H](c3ccc(Cl)cc3)N2C(=O)N2CCNC(=O)C2)c(OC(C)C)c1 [Nutlin-3] + CCCS(=O)(=O)Nc1ccc(F)c(C(=O)c2c[nH]c3ncc(Cl)cc23)c1F [PLX4720] (first compound 0.1 µM, partner dose 0.08 µM)",64.3,173,98.4,349,,66,123,175,104

# Single records, from the list above. Order of values: cleaved PARP positive nuclei fraction (501Mel) [%] | cleaved PARP positive nuclei fraction (A101D) [%] | cleaved PARP positive nuclei fraction (A2058) [%] | cleaved PARP positive nuclei fraction (A375) [%] | cleaved PARP positive nuclei fraction (C32) [%] | cleaved PARP positive nuclei fraction (CBRC008) [%] | cleaved PARP positive nuclei fraction (CBRC014) [%] | cleaved PARP positive nuclei fraction (CBRC016) [%] | cleaved PARP positive nuclei fraction (CBRC017) [%]
# CC1(C)CCC(c2ccc(Cl)cc2)=C(CN2CCN(c3ccc(C(=O)NS(=O)(=O)c4ccc(N[C@H](CCN5CCOCC5)CSc5ccccc5)c(S(=O)(=O)C(F)(F)F)c4)cc3)CC2)C1 + CC(=O)c1c(C)c2cnc(Nc3ccc(N4CCNCC4)cn3)nc2n(C2CCCC2)c1=O [palbociclib] (first compound 0.4 µM, partner dose 0.04 µM) is entered as 65.8 | 300 | 143 | 834 | 135 | 386 | 390 | 392 | 332
# C[C@]1(O)C[C@@H](c2nc(-c3ccc4ccc(-c5ccccc5)nc4c3)c3c(N)nccn32)C1 + CNC(=O)c1cc(Oc2ccc(NC(=O)Nc3ccc(Cl)c(C(F)(F)F)c3)cc2)ccn1 [sorafenib] (first compound 0.4 µM, partner dose 0.4 µM) is entered as 138 | 99.7 | 79.1 | 487 | 88.5 | 118 | 114 | 64.9 | 110
